# Source: PubChem BioAssay AID1508600 (Functional Genomics Laboratory (NCATS/FGL), 2020)
# The campaign covered roughly 53,000 sequences. About 3,700 (7%) were called active.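 How the source made its calls: active means gene knockdowns whose robust z-score for IL-1 alpha signal is at least 2 or at most -2, so actives lie on both sides; inactive means the rest.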 This is one part of the list.
# Assay: Components of the Cytosolic LPS Sensing Pathway: Gene Identification via Genome-wide siRNA Screen;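 further: robust z of the log signal after scaling to non-targeting control siRNA wells of the plate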
# Conditions: RAW264.7 macrophages, IL-1a HTRF, actives lie on both sides, screened at 100 nM (by protocol), cells primed 5 h with Pam3CSK4 first
# Summary of the method: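 Mouse macrophage line RAW264.7 is transfected with siRNA (100 nM final), grown 48h, primed with TLR ligand Pam3CSK4 5 h and given intracellular LipidA 24 h. IL-1a in supernatant is read by HTRF and viability by luminescence.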
row,Sequence,z-score
1,GGCCUAAGCAAGUUGCGCATT against Fbxl8,inactive: 1.5
2,GGAGUUCUGUCCAUUUUGATT against Olfr1198,inactive: 0.45
3,GGAAGUGAAAGUGAAUUGGTT against Tia1,inactive: -0.488
4,GGGUUUGAUUAGCUUAAUUTT against Olfr905,inactive: -0.927
5,GGAGAAACUUAAGAGGCUUTT against Trp53bp2,inactive: -0.827
6,GAGCACAUCAUGGAACAUCTT against Mcfd2,inactive: 0.583
7,CCCUGCAUUAGAAAUUGAATT against Sst,inactive: 0.645
8,GCUACUUCAUGGAAUCUUCTT against Mrgprb8,inactive: -0.668
9,GCCACAAGAAUCUCAUUGUTT against C130046B21Rik,inactive: -1.42
10,GCCUGGUUAUUAAUUUAUCTT against Dzank1,inactive: -0.724
11,GCUCCAACACCCUGUGAAUTT against Prss42,inactive: -0.437
12,GGAAGAAUGUGGGUAAAGATT against Gimap9,active: -2.01
13,GGAGAAGGAAGAGCUAAAGTT against Tpd52l1,inactive: 1.38
14,GCACUGAAAGUCUCGAAAGTT against 2410137M14Rik,inactive: 0.286
15,GCUCGAUAUUUUGAAGUCCTT against Cntd1,inactive: 0.693
16,GCCACACAAAAUUUGGCAUTT against Fbxw26,inactive: 0.796
17,GGUCAAAGUUAUGCAAUGUTT against Rp9,active: -2.02
18,GGUCAGAAGUCCUUACUGGTT against Cyp2d10,inactive: -0.328
19,GGCAGAGCAUUUUGAUUUUTT against Cstf2t,inactive: -0.0658
20,GCUGGAAAUGACACUGCCUTT against C1qtnf7,inactive: 1.45
21,GGAUACCUACCUGGACAGUTT against Dlgap4,inactive: -1.23
22,GGAGAGAGAUGCCCAAAUCTT against Zfp507,inactive: -0.362

row,Sequence,z-score
1,CGUGAUUAUGGUCGGUGCUTT against Ube2m,inactive: -0.663
2,GCAGCGGAGGGUCAAAGAATT against Pym1,inactive: 0.783
3,CGUUGGUUGAUUAUUACCUTT against Tsc1,inactive: -1.63
4,GGAACUGUCAAACUGAUUUTT against Tlm,inactive: -1.34
5,GGCUUUUAUAGCUAAGGUUTT against Spc25,active: -2.18
6,GCGAAUGAAUUUUCCCAUATT against Fam120c,inactive: 0.817
7,GGACAAUCUUUACUUCCUATT against Vsx2,inactive: -0.864
8,GCGGACUAGCAGAGCUAUUTT against Dgkq,inactive: -0.812
9,GCAACAAUGGUAACCCUCCTT against Ctsg,inactive: 1.68
10,GGACCUACGACAUUUCCUCTT against Magi1,inactive: -0.75
11,GCUAAUAUUGUCGAUGUUATT against Ptger4,inactive: 0.384
12,GCGAUGCUCCUAAUUCUUATT against Dusp21,inactive: -1.18
13,GGUCAAUUAAGAGAAAUGUTT against Abca12,inactive: 0.28
14,GAAAUUCUUCCAGUGGAAGTT against Lrp2bp,inactive: 0.958
15,GCUAGUUUUUCAGAUUUCATT against Timm22,inactive: 1.29
16,CCUAAUAAGCCAUAUGCAUTT against Alkbh8,inactive: -0.449
17,GCACAUUUAUUCAAGAACCTT against Ttn,inactive: 0.126
18,CGAACUCAUCUACUGCUAUTT against Chst11,inactive: 1.43
19,GGGUAACUAUAUCACAUACTT against Cacna1c,inactive: -0.207
20,GGAAUUAUGCUGCUUUAAUTT against Xrcc2,inactive: 1.14
21,GGUACAUGAAUUCCAAUACTT against Itgb8,inactive: 0.784
22,GCGGAGCGUAUGGAUAUGATT against Zfp619,inactive: 0.0905

# 4 entries picked at random from the list so far, as already listed:
row,Sequence,z-score
10,GGACCUACGACAUUUCCUCTT against Magi1,inactive: -0.75
15,GCUAGUUUUUCAGAUUUCATT against Timm22,inactive: 1.29
20,GGAAUUAUGCUGCUUUAAUTT against Xrcc2,inactive: 1.14
13,GGUCAAUUAAGAGAAAUGUTT against Abca12,inactive: 0.28

# (next part)

row,Sequence,z-score
1,CGAGGCUAAGAGGAAUCAGTT against Capn5,inactive: -0.314
2,GGAGUUUCCAUCACGAAGATT against Bmp4,inactive: 0.574
3,GGCACUACAACGGAACUCATT against Slco5a1,inactive: -1.82
4,GGAAAAACUCCUCUGAGGCTT against Dpcd,inactive: -1.24
5,GCACAGAUGCAAGAUAAUCTT against Hcfc2,inactive: -0.717
6,GGCUUCAUAAGAUCAAAGATT against Lca5l,active: -2.88
7,GGGAACAGUUAUUUAAACGTT against Ino80e,inactive: 0.103
8,GGUUCUGACCCUUGGUUAUTT against Vmn1r217,inactive: 0.89
9,CUUUUUCUUGCUCUUUGGATT against Olfr20,inactive: 1.15
10,GGUGGAGGUGUGAUGGAUUTT against Slamf1,active: 5.09
11,GGCAAUGGAAGUUGGAACATT against Ptch1,active: -2.15
12,GGAAAUUUUCCAUCAUGAATT against Scn8a,inactive: -0.646
13,GGGUUUAUUUGGUCAAGAUTT against Mpc2,inactive: -0.349
14,GCAAUGGACUACUGCUGCUTT against Olfr704,active: -2.26
15,GGUCUUAUGUAAGUGGUAUTT against Ociad1,active: -2.03
16,GUUCUUAUAUAGGAUUGUGTT against Xkr9,inactive: -0.782
17,GGACUUACUGCUAAGAGCUTT against Stx8,inactive: -0.31
18,GGCACGCAUAUUCAACGAATT against Copg2,inactive: -0.528
19,GGUAGAAGCAGAGUUACCATT against Spata32,inactive: -1.64
20,CCUUGUUACUAUACUACACTT against Ppp1r2,active: 2.59
21,CGAUGAUCGGCUCAACAAGTT against Rplp2,inactive: -0.401
22,CCCGGCCAUCUACACUUAUTT against Gpr6,inactive: 0.215

row,Sequence,z-score
1,GCAAGAGUGAGAAUAUGUCTT against Fadd,inactive: -0.366
2,GCCUCCGUUUGAAAUAGAGTT against Zswim9,inactive: 0.381
3,GGAGACUGUCAGAAAGUUATT against Olfr1164,inactive: -0.769
4,CCUCUCUGAAUUGGUUAAUTT against Dipk1a,inactive: -1.34
5,GGAGUUUCAUCCUACCAACTT against Nodal,inactive: -0.142
6,GUCCCUCUCUUCUUGGUGUTT against Olfr74,inactive: 0.26
7,GGCUCCUCUACACAGGCAATT against Dusp26,inactive: -1.39
8,GAUCCGUUGGGAAAAGAACTT against Ssbp4,inactive: -0.881
9,GGUAACAAUCCCAGAAUCCTT against Gbp4,inactive: 0.777
10,GGUACUACACCUUUGAUGATT against Fibp,inactive: -0.497
11,GCUACAGUGAUACAUUAGATT against Zfp69,inactive: 1.74
12,CCCGGAGAAAUACAUUAAGTT against Exoc7,inactive: -0.0536
13,GGACAAGGAAUUCUAACAGTT against Ankrd49,inactive: -0.953
14,GGACAUUAGGAUCAGAACCTT against Frg2f1,inactive: 1.88
15,GGAGACGAGGUCAUCAUCATT against Kyat1,inactive: -0.652
16,GGAGCAGAAGAAAUAUCUUTT against Olfr13,inactive: 0.0471
17,GGAAAUCCAGAAGAAAUUATT against Stmn1,inactive: 0.81
18,CGUUAUUUGCUGACAAUGUTT against Tas2r119,inactive: -1.21
19,GCACAUAUGUUUGUUAAGCTT against Rft1,inactive: -0.423
20,UGAUAAGUAGUCCCUCCUUTT against Fbxw16,inactive: -0.982
21,GGUGGACAGGAGAAAGGAATT against Npy6r,inactive: -0.578
22,GGUGGUCCUUCCCUAAAGATT against Il11,inactive: -0.747

row,Sequence,z-score
1,GGAGUACAGUGAUGACAAGTT against Ing5,inactive: -0.083
2,GGAUAAAUCUCACUUCACATT against Etf1,inactive: -0.477
3,GCCAAUAACUUCACUGAUATT against Pi15,inactive: -1.53
4,GCUCCUAAUGAAAUGGUUUTT against Kif2a,inactive: 1.41
5,GGAAGUUAAAACCCUACUUTT against Trh,inactive: -0.43
6,GGGAAUAUGACUGAAUAUATT against Ss18,inactive: -1.05
7,ACCUUUUCAAAUCUGUGCGTT against Uts2b,inactive: -0.928
8,GGAGGAGGCUGACUACUUUTT against Kctd18,inactive: 0.75
9,GGGCAAUACUAAAUAAAAGTT against Gid4,inactive: 1.33
10,GGUUCUGAAAUGCAUGGAGTT against Rnf6,inactive: 1.76
11,GGUGGAUGAUAAUGUUCUUTT against Gcnt3,inactive: 0.911
12,GGAGUUUAGUGACGAUGUGTT against Zfp46,inactive: -1.48
13,CCAGGUUCUGUUGAGAAUCTT against Irak1bp1,inactive: -0.403
14,GGAAAUCCACAGGAAAGUGTT against G3bp1,inactive: 0.754
15,GGUAAAAUGAUCCUUAGAATT against Pcdh15,inactive: 0.145
16,CCAUCCAUAUGAACUAUGATT against Slc30a4,inactive: -1.5
17,GGUUUACAGCAUCAUUAAATT against Shmt1,inactive: 0.345
18,CCUCGCAUAAUUAAUUGUUTT against Prdm8,inactive: -0.242
19,GCACCAAAACAGGAAUUACTT against Fibp,inactive: 1.23
